Test in all cases: protein microarray (ProtoArray v5.0), streptavidin-Alexa Fluor 647
Common to all, as to details: 3'-biotin; 20 mM Tris (pH 7.5), 5 mM MgCl2, 100 mM KCl, 0.1% Tween-20, A/T-rich and random oligonucleotide blockers; temperature not stated; high values mean tight binding

For assay [1], the system named is Serine/threonine-protein kinase VRK3 (human).
The subject of assay [2] is Serine/threonine-protein phosphatase 2A 56 kDa regulatory subunit gamma isoform (human).
Assay [3] has as its system Serine/threonine-protein phosphatase 2A 65 kDa regulatory subunit A beta isoform (human).
In assay [4] the test system is Serologically defined colon cancer antigen 3 (human).
The next assay has as its system Serum albumin (human).
Assay [5] deals with Serum amyloid A protein (human).
Assay [6] concerns Signal transducer and activator of transcription 4 (human).
Assay [7] deals with Signal transducer and activator of transcription 6 (human).
The test system of assay [8] is Smith-Magenis syndrome chromosome region candidate gene 7 protein (human).
Assay [9] deals with Sodium channel and clathrin linker 1 (human).

This is one part of the list.

With “GGTGACAGGGGTATGGGGAGGGG [G4-2 biotinylated (Ct1)]”, the binding signal in assay [1] is 5.13 z-score; in assay [2] it was -0.383 z-score; in assay [3] it was -0.396 z-score; in assay [4], -0.38 z-score; with Serum albumin (human), -0.399 z-score; in [5], -0.358 z-score. In addition, the binding signal in assay [6] is -0.376 z-score; in assay [7], -0.369 z-score; in assay [8], -0.392 z-score; in assay [9] it was -0.394 z-score.

Source of the values: paper PMC5996148.
